No constants are given. Whether binding was seen depends on the method and setting. In cells and extracts the contact can be indirect. Some results given as binding are weak or reduced against the parent protein; the word gives no strength.

Chains of the proteins cited; added tags and fusions are not shown. Lines headed by an entry give the natural chain unless they say otherwise; changes in a name come on top.
UniProt Q13315: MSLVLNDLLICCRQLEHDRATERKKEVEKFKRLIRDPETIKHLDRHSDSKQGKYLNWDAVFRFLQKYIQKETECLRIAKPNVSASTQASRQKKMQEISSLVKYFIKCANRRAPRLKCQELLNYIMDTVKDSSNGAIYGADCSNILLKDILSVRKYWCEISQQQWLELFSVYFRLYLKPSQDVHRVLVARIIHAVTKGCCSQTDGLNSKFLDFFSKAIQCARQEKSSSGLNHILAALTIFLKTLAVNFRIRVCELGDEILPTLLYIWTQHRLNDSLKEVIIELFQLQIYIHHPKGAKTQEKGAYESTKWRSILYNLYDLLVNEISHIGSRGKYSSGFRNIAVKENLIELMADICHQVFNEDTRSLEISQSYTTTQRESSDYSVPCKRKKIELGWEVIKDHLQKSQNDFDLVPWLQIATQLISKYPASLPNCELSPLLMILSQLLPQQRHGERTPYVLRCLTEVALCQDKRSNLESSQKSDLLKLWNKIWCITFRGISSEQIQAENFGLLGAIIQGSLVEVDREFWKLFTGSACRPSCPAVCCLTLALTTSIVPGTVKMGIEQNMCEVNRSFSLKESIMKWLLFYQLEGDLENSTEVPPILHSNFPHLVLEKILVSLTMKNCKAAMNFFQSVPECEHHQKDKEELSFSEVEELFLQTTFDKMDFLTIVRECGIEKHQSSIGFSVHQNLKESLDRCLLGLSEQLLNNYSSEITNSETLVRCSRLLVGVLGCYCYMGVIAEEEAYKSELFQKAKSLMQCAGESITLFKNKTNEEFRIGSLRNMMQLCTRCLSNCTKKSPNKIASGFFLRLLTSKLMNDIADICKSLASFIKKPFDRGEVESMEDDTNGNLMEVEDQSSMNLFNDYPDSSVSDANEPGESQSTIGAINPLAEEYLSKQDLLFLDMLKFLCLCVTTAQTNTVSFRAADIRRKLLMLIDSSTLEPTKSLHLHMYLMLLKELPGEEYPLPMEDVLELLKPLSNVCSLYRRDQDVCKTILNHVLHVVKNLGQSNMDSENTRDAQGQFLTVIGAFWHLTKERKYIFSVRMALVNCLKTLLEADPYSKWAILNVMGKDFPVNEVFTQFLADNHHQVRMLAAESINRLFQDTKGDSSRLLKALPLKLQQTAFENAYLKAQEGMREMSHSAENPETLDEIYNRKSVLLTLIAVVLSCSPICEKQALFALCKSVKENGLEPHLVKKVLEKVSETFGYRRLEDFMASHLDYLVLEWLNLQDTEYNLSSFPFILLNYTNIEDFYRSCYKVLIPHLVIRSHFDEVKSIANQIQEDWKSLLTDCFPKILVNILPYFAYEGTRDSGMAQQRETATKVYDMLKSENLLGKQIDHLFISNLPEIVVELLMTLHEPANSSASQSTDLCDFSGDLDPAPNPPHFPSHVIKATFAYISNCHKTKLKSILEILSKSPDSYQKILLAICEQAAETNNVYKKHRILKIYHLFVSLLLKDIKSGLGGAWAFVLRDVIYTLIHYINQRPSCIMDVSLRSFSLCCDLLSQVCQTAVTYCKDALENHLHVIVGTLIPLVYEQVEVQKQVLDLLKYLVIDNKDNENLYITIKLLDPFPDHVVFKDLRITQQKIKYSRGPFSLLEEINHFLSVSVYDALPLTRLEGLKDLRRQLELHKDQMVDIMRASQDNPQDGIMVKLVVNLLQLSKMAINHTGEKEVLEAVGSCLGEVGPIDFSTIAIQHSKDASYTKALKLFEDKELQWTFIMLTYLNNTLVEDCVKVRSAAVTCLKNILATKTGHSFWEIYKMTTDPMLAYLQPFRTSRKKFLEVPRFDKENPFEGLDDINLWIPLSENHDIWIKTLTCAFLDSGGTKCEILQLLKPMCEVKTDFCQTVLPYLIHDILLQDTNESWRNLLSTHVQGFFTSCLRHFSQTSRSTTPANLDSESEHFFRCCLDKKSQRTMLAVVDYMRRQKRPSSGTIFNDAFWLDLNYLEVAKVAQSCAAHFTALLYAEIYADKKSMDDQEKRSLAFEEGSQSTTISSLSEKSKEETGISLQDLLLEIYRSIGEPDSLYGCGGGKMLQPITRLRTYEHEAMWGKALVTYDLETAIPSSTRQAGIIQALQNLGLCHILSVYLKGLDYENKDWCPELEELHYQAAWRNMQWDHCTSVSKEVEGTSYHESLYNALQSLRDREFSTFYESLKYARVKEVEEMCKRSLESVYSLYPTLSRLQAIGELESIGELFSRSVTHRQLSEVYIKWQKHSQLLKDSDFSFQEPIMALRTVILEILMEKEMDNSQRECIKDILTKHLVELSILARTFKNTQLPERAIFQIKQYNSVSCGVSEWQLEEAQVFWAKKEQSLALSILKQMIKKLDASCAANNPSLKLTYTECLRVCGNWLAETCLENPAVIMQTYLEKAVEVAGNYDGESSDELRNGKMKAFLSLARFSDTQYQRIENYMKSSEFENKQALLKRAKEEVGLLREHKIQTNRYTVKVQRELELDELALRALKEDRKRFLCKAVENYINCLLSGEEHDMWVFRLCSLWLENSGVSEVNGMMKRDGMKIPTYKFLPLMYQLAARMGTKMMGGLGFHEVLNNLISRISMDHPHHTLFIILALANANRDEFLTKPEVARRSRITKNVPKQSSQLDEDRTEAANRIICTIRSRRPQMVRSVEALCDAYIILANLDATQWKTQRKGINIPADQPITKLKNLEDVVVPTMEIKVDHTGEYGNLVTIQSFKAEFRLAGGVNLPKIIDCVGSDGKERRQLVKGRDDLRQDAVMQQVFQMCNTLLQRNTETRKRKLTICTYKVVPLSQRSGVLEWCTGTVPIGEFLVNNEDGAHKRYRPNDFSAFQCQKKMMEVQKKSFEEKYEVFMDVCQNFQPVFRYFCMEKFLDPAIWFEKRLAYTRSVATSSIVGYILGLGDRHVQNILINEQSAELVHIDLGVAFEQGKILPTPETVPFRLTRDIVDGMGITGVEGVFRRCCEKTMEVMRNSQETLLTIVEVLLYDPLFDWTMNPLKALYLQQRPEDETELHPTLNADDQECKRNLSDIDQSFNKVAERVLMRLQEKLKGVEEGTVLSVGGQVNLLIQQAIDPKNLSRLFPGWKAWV
UniProt P62136: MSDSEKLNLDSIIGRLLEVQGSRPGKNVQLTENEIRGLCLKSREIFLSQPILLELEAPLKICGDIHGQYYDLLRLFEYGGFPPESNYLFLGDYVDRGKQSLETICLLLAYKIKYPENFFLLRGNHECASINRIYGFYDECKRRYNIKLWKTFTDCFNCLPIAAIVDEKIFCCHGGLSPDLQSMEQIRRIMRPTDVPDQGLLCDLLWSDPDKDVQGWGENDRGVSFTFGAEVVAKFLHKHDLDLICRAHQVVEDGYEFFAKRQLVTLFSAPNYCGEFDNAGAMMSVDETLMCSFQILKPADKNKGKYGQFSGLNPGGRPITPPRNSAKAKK
UniProt P49841: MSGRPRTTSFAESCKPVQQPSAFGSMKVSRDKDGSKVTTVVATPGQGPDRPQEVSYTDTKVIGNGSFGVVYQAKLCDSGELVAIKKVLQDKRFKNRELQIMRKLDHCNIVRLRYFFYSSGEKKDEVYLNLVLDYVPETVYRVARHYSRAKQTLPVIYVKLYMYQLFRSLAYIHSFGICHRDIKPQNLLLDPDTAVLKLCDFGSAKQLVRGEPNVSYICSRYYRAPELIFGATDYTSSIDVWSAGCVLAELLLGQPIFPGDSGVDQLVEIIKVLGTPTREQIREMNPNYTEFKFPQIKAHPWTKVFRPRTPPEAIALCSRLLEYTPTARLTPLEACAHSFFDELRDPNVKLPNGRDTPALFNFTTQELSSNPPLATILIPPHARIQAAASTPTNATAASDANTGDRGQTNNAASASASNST

The target in test [1] is FLAG-tagged ATM (ataxia telangiectasia mutated), wild type (human) (UniProt Q13315). The test is described as follows: co-IP; FLAG immunoprecipitation kit from lysates of 293T cells transfected with FLAG-tagged ATM; cells under stress: CPT (1 μM, 24 h), IR (20 Gy, 24 h) or hypoxia (5 h); mutants: IR or hypoxia (KD, S1981A), hypoxia 5 h (R533A, K2117A, K2992A/S2996A).
The target is the same in test [2]. The test is described as follows: co-IP; FLAG immunoprecipitation kit (FLAGIPT1, Sigma) from lysates (Pierce IP Buffer) of 293T cells transfected with FLAG-tagged ATM 48 h before; untreated control cells; blots of the precipitates.

Regarding PP1α (from UniProt P62136 1-330), the binding entry in test [1] was “no binding”.
In the case of “Ser9-phosphorylated GSK3β (p-GSK3β) (from UniProt P49841 1-420)”, the figures for the binding entry in test [2] and in test [1] were “binds” and “binds weakly”, respectively.
With “glycogen synthase kinase 3β (GSK3β), unphosphorylated (activated) (from UniProt P49841 1-420)”, the binding result in test [2] was “binds”.
